These are yes or no findings as the source states them, for the method shown.

This experiment has as its target TnpB from Deinococcus radiodurans ISDra2 (Deinococcus radiodurans) (UniProt Q7DF80). In words: cryo-EM structure; TnpB–ωRNA–target DNA ternary complex, purified on Superdex 200 Increase in 20 mM Tris-HCl pH 8.0, 150 mM NaCl, 2 mM MgCl2, 10 μM ZnCl2, 1 mM DTT; 0.5 mg/ml on grids; both purified.

B1: TnpB from Deinococcus radiodurans ISDra2 (enzyme, UniProt Q7DF80 1-408)
chain: MIRNKAFVVRLYPNAAQTELINRTLGSARFVYNHFLARRIAAYKESGKGLTYGQTSSELTLLKQAEETSWLSEVDKFALQNSLKNLETAYKNFFRTVKQSGKKVGFPRFRKKRTGESYRTQFTNNNIQIGEGRLKLPKLGWVKTKGQQDIQGKILNVTVRRIHEGHYEASVLCEVEIPYLPAAPKFAAGVDVGIKDFAIVTDGVRFKHEQNPKYYRSTLKRLRKAQQTLSRRKKGSARYGKAKTKLARIHKRIVNKRQDFLHKLTTSLVREYEIIGTEHLKPDNMRKNRRLALSISDAGWGEFIRQLEYKAAWYGRLVSKVSPYFPSSQLCHDCGFKNPEVKNLAVRTWTCPNCGETHDRDENAALNIRREALVAAGISDTLNAHGGYVRPASAGNGLRSENHATLVV
For B1, the binding result is reported as “no binding”.

The values above are taken from publication PMC10097598, “Cryo-EM structure of the transposon-associated TnpB enzyme”.
